Data from article PMC6868087, “Exploiting Curcumin Synergy With Natural Products Using Quantitative Analysis of Dose–Effect Relationships in an Experimental In Vitro Model of Osteoarthritis” (Frontiers in Pharmacology, 2019).

System: IL-1β mRNA expression
Assay: IL-1β mRNA expression (RTqPCR) in LPS-stimulated human articular chondrocytes; Chou-Talalay median-effect and combination index analysis
Format: cell-based
Conditions: LPS 2 µg/ml, 4 h
Procedure: Human articular chondrocytes (ScienCell, CA, USA) were cultured in the specific Chondrocyte Medium (Cat. 4651; ScienCell, CA, USA) supplemented with 1% antibiotic mixture, in 5% CO2 humidified incubator at 37°C. The medium was renewed every 2 days and confluent chondrocytes were trypsinized, subdivided, and re-plated. In these experiments chondrocytes from passage 3 to 7 were used. Chondrocytes were cultured in six well culture plates at a density of 2.5 × 10^5 cells/well. Sixteen hours after seeding, a set of plates were treated with LPS (2 µg/ml; Escherichia coli serotype 055:B5; […] Total RNA was isolated from human chondrocytes for RTqPCR analysis using Trizol Reagent Kit (Life Technologies, Monza, Italy). […] RTqPCR was performed on both targets and endogenous control using SYBR Premix DimerEraser (Takara, Japan) and QuantStudio 6 Flex Real-Time PCR System (Applied Biosystems, CA, USA). The amplified PCR products were quantified by measuring the calculated cycle thresholds (CT) of targets and β-actin mRNA. The amounts of specific mRNA in samples were calculated using the 2^-ΔΔCT method. The mean value of investigated mRNA levels in LPS or IL-1β-stimulated chondrocytes was chosen as the calibrator, and the results are expressed as % of reduction compared to LPS or IL-1β controls. The IC50 value was calculated by fitting the progress curves to the four-parameter IC50 equation using GraphPad prism software version 5.03 (Graphpad software, CA, USA). Chou and Talalay multiple drug effect analysis was performed and it is based on the median-effect principle ([Chou and Talalay, 1984]; [Chou, 2006]). The Median Effect Equation states that fa/fu = (D/Dm) m, where D is the dose, fa and fu are the affected and the unaffected fractions, respectively, of IL-1β mRNA expression levels, by the dose D; Dm is the dose required to produce the median effect (i.e., IC50), and m is the Hill-type coefficient signifying the sigmoidicity of the dose–effect curve. […] The CI was calculated as: CI=[(D)1/(D50)1]+[(D) 2/(D50)2 […] The CI index was calculated using Grafit software.

[1] = curcumin/β-caryophyllene experiment

| Compound | m, Hill-type coefficient of median effect plot [1] | m, Hill-type coefficient of median effect plot (curcumin/flavocoxid experiment) |
| --- | --- | --- |
| C=C1CC/C=C(\C)CC[C@@H]2[C@@H]1CC2(C)C [β-caryophyllene] | 0.88 |  |
| COc1cc(/C=C/C(=O)CC(=O)/C=C/c2ccc(O)c(OC)c2)ccc1O [curcumin] | 1.38 | 1.835 |
